Data taken from PubChem BioAssay AID743255 (National Center for Advancing Translational Sciences (NCATS), 2014).
Among all 390,000 compounds or so, about 910 (0.23%) were called active. The shares of active, inactive and inconclusive entries below differ from those in the screen. The call rests on the fitted dose curve; in most records, active means well fitted inhibition curve with a large enough effect; inconclusive means small, poorly fitted or top-dose-only effect; inactive means no such curve, though single readings can be large or run the other way. A potency beside an inconclusive call is a rough fit, not a confirmed value.

Amino acid sequences for entries named in this document (tags omitted). A change or cut given only in a name is not applied to a line headed by its entry.
UniProt O94782: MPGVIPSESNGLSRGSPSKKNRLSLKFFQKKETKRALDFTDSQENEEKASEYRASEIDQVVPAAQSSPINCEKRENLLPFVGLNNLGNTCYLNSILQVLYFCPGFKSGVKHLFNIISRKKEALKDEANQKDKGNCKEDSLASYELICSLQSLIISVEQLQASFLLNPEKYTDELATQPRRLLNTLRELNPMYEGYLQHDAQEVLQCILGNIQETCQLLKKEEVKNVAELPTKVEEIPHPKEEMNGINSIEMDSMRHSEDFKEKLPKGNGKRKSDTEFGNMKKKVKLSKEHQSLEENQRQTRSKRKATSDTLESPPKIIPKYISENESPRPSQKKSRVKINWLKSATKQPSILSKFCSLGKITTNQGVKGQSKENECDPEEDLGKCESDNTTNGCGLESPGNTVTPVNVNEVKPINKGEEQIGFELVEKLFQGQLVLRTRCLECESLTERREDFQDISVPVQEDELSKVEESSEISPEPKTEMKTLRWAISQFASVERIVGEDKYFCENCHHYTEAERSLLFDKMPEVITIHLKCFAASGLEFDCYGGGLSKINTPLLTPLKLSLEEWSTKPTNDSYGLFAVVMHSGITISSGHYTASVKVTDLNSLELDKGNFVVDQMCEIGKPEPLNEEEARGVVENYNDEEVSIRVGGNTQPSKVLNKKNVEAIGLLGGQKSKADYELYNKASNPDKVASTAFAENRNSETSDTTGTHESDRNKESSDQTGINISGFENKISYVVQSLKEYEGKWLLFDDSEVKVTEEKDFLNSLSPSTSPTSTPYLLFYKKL

Target: Ubiquitin carboxyl-terminal hydrolase 1 (Homo sapiens) (UniProt O94782)
Test: Inhibitors of USP1/UAF1: Primary Screen; further: nearly all actives have a fitted effect of over 60% in size
Conditions: recombinant USP1/UAF1, Ub-Rhodamine cleavage fluorescence; series mostly up to 57.1 µM
Summary of the method: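 In this screen, compounds sit with the deubiquitinase complex (1nM) for 15 min at room temperature before Ub-Rho is added at 150nM final. Fluorescence rise is then followed for 6 reads every 60 seconds.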
Potency means the concentration at half of the fitted maximal effect.

Potency, inactive:
Cc1cccc(N2CCN(c3nc4ccccc4c(=O)n3-c3ccc(Cl)cc3)CC2)c1C
O=C(NCC(c1cccs1)N1CCOCC1)c1cc2ccccc2oc1=O (configuration not stated)

Potency, inconclusive:
Cc1nn(-c2nc(-c3ccc(F)cc3)cc(C(F)(F)F)n2)c(C)c1Cl 5.01 µM [inhibitor, partial curve]
COc1ccc(S(=O)(=O)NCc2ccco2)c2ccccc12 3.98 µM [inhibitor, single point]
CCc1ccc(CNC(=O)c2ccc3nc(C(C)C)oc3c2)cc1 7.94 µM [inhibitor, full curve, poor fit]
O=C(NCc1ccccc1)c1ccc(Cl)nc1 35.5 µM [inhibitor, partial curve]
COC(=O)COc1ccc(S(=O)(=O)NC2CCCCCC2)cc1 5.01 µM [inhibitor, partial curve]
COC(=O)[C@]1(Cc2ccccc2)N[C@H](CN(C)C(=O)NC(C)C)[C@@H]2C(=O)N(C)C(=O)[C@@H]21 25.1 µM [inhibitor, partial curve, poor fit]
COc1cc(C(=O)Nc2ccc(NC(=O)c3ccc(Br)cc3)cc2)cc(OC)c1OC 0.562 µM [inhibitor, full curve, poor fit]
O=c1c2ccccc2n(CC(O)CN2CCOCC2)c2ccccc12 (configuration not stated) 2.51 µM [inhibitor, partial curve]
COC(=O)c1ccc(C23CC4(C2)[C@H](CN(C)[C@@H]4c2ccccc2)C3c2ccc(C(F)(F)F)cc2)cc1 (some centres not stated) 70.8 µM [inhibitor, partial curve, poor fit]
COc1ncnc2c1ncn2CCCNCc1ccco1 0.282 µM [inhibitor, full curve]
CC1CCN(c2nnc(-c3ccccc3)c3ccccc23)CC1 44.7 µM [inhibitor, partial curve, poor fit]
Cc1ccc(C)c(S(=O)(=O)NCC(c2ccco2)S(=O)(=O)c2ccc(F)cc2)c1 (configuration not stated) 10 µM [inhibitor, full curve, poor fit]
NCCCNCCCCNCCCN 7.94 µM [inhibitor, partial curve, poor fit]
CCOc1ccc(C(=O)Nc2ccc(S(=O)(=O)N3CCCCC3c3cccnc3)cc2)cc1 (configuration not stated) 5.01 µM [inhibitor, partial curve]
COc1ccc(C2=NOC(C(=O)Nc3c(C)n(C)n(-c4ccccc4)c3=O)C2)cc1 (configuration not stated) 44.7 µM [inhibitor, partial curve, poor fit]

Ordered by count of non-hydrogen atoms (falling): some entries from above
Potency, inconclusive:
COC(=O)[C@]1(Cc2ccccc2)N[C@H](CN(C)C(=O)NC(C)C)[C@@H]2C(=O)N(C)C(=O)[C@@H]21 25.1 µM [inhibitor, partial curve, poor fit]
CCc1ccc(CNC(=O)c2ccc3nc(C(C)C)oc3c2)cc1 7.94 µM [inhibitor, full curve, poor fit]
NCCCNCCCCNCCCN 7.94 µM [inhibitor, partial curve, poor fit]
